Laboratory results reported in paper doi:10.1101/271270.

Chains of the proteins cited; added tags and fusions are not shown. Lines headed by an entry give the natural chain unless they say otherwise; changes in a name come on top.
UniProt G5EE53: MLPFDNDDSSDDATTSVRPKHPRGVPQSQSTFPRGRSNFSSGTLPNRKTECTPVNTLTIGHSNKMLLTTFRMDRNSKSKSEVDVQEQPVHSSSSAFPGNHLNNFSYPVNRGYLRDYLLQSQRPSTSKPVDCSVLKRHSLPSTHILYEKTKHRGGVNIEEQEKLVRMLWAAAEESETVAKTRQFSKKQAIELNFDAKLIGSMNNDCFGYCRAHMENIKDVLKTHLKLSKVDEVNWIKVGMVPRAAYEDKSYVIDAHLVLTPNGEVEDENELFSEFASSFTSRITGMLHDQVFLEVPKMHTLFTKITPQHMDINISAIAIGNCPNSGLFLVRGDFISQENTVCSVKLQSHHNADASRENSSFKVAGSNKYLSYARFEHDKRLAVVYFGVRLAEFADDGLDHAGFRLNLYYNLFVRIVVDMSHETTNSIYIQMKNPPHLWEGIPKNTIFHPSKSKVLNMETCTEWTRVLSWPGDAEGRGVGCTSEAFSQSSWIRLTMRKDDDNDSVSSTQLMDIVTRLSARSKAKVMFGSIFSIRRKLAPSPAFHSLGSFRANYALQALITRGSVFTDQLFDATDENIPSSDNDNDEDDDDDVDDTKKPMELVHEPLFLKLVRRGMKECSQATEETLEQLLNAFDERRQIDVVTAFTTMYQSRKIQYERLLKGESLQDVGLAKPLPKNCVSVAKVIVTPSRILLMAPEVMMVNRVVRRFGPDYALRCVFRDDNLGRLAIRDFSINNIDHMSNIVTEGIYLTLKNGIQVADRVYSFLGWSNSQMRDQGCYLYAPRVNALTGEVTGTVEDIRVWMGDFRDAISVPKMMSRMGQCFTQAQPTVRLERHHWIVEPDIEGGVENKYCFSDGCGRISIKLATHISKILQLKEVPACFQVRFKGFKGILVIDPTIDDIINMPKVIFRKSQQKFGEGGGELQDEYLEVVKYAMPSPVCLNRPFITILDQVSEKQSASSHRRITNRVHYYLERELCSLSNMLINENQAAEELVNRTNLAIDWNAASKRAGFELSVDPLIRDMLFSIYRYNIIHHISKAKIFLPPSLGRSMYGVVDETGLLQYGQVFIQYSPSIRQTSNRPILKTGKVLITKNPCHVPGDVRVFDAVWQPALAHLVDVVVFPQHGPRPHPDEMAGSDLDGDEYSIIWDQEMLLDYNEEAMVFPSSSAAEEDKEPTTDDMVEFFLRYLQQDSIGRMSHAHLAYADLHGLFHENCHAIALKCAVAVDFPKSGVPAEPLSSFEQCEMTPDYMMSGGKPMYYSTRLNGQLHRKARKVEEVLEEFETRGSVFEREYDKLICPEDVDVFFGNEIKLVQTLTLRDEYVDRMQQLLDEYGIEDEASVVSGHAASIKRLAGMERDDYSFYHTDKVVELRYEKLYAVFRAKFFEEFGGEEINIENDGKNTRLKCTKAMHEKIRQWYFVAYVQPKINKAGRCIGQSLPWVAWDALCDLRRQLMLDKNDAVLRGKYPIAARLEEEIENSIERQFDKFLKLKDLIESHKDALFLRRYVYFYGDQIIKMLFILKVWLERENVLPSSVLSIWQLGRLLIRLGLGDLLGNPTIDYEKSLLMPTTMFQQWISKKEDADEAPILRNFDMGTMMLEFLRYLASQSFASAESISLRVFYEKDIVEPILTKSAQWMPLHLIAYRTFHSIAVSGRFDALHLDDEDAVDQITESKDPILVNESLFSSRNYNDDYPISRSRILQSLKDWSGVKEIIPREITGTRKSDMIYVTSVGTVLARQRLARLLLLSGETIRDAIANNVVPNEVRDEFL

What was measured:
Assay in all cases: affinity purification with mass spectrometry
[1] = target: GTSF-1 (T06A10.3), endogenous (C. elegans (endogenous in worm extracts)) (UniProt A3QMD6)
[2] = target: GTSF-1 (T06A10.3), endogenous (C. elegans (endogenous in worm extracts)) (UniProt A3QMD6); remark: listed apart in the source
[3] = target: GTSF-1 (T06A10.3), endogenous (C. elegans (endogenous in worm extracts)) (UniProt A3QMD6); remark: listed apart in the source

Measured: binding

RRF-3, endogenous (from UniProt G5EE53) (enzyme)
binds: all assays above

Where two headings read alike, the source gives them in different places. Results are given in words; binding and its absence hold for the method and conditions named. In cells and extracts the contact can be indirect. A yes stands for co-enrichment or nearness to the bait. Other partners may have been found.
